From patent publication US20240124387A1, “ACID RECOVERY” (GREENCOVERY B.V., priority 2021, published 2024)

Key:
[1] = Desorption of acid from weak anion exchange resin with alcoholic hydroxide eluent; format: physicochemical; conditions: for amino acid desorbed per mL of resin bed: 0.425 M KOH in 93.5 wt. % ethanol; for acid desorbed per mL of resin bed: eluent 90 wt. % ethanol, 10 wt. % water, 1M KOH
[2] = Adsorption of acid on weak anion exchange resin column; format: physicochemical; conditions: for amino acid adsorbed per mL of resin bed: 7.4 mL WBA, feed 1.92 g/L glutamate, 2.5 g/L leucine or alanine, until absorbance constant; for acid adsorbed per mL of the resin bed: 6.6 mL weak anion exchange resin, 30 mL of 20 g/L acid solution

Compound | amino acid desorbed per mL of resin bed [1] | amino acid adsorbed per mL of resin bed [2] | acid desorbed per mL of resin bed [1] | acid adsorbed per mL of the resin bed [2]
N[C@@H](CCC(=O)O)C(=O)O [Glutamic acid] | 7.4 mg per mL of resin bed | 16.2 mg per mL of resin bed | – | –
CC(C)C[C@H](N)C(=O)O [Leucine, L-leucine] | 16.2 mg per mL of resin bed | 21.5 mg per mL of resin bed | – | –
C[C@H](N)C(=O)O [alanine, L-alanine] | 10.5 mg per mL of resin bed | 16.5 mg per mL of resin bed | – | –
CCCCCC(=O)O [caproate, caproic acid] | – | – | (essentially) all adsorbed caproate was desorbed | 38.3 mg per mL of resin bed
CC(O)C(=O)O (stereo not shown) [lactate, lactic acid] | – | – | 18.5 mg per mL of resin bed | 48.1 mg per mL of resin bed
